From PMC11125953 (Viruses, 2024)

Tested on: EHV-4 405/76 reference strain
Experiment: RTCA
Assay type: cell-based, Equid herpesvirus 4
Conditions: area under normalized Cell Index curves, 0-120 hpi, EHV-4-infected E. Derm cells

CC(C)c1c(C(=O)Nc2ccccc2)c(-c2ccccc2)c(-c2ccc(F)cc2)n1CC[C@@H](O)C[C@@H](O)CC(=O)O [Atorvastatin]
AUCn (0.4 µM): 40.71
AUCn (2 µM): 27.80
AUCn (10 µM): 17.36
AUCn (50 µM): 13.93
